To fix the notation:
T1: H14-ZZ-NEDD8–tagged Ubc9 (yeast (S. cerevisiae)) (UniProt P50623)
T1 sequence: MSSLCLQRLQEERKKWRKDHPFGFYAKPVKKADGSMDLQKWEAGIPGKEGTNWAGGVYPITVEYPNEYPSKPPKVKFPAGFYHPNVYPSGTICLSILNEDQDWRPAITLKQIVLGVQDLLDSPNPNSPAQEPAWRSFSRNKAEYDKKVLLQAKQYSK

Chains of the proteins cited; added tags and fusions are not shown. Lines headed by an entry give the natural chain unless they say otherwise; changes in a name come on top.
UniProt Q02821: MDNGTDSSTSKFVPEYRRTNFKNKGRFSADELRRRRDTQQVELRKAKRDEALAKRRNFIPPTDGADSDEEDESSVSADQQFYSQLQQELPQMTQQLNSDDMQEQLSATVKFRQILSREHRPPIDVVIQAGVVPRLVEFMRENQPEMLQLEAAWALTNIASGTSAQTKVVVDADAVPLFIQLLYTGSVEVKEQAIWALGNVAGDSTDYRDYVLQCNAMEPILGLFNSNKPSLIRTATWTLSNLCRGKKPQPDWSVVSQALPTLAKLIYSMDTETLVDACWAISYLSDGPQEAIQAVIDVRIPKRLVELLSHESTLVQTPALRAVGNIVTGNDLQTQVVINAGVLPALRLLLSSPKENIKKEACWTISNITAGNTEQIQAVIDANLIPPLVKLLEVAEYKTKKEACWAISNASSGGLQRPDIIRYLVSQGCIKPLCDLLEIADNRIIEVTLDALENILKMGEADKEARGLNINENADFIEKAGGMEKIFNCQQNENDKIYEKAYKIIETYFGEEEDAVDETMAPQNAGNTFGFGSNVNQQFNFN
UniProt Q06142: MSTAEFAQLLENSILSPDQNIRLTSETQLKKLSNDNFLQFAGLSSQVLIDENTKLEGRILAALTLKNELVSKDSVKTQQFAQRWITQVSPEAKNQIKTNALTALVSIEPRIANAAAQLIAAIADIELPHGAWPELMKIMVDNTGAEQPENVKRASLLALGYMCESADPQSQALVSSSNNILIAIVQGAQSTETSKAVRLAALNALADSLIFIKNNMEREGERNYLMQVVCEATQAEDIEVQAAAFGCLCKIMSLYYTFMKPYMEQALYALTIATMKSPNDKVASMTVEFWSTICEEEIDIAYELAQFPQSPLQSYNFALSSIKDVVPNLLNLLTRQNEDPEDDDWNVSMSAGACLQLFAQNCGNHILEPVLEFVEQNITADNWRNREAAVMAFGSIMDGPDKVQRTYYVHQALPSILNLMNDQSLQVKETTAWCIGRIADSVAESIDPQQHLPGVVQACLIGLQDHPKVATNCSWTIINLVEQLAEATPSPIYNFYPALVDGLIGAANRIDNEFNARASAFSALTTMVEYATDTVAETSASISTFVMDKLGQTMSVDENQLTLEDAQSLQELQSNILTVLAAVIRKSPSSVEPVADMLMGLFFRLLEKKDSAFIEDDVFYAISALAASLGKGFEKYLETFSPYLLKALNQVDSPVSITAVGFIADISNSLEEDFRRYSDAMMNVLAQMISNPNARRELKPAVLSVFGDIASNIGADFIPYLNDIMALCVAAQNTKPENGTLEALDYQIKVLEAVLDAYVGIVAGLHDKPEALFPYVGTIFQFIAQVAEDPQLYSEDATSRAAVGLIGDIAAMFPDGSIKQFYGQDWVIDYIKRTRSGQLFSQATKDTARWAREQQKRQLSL
UniProt P53067: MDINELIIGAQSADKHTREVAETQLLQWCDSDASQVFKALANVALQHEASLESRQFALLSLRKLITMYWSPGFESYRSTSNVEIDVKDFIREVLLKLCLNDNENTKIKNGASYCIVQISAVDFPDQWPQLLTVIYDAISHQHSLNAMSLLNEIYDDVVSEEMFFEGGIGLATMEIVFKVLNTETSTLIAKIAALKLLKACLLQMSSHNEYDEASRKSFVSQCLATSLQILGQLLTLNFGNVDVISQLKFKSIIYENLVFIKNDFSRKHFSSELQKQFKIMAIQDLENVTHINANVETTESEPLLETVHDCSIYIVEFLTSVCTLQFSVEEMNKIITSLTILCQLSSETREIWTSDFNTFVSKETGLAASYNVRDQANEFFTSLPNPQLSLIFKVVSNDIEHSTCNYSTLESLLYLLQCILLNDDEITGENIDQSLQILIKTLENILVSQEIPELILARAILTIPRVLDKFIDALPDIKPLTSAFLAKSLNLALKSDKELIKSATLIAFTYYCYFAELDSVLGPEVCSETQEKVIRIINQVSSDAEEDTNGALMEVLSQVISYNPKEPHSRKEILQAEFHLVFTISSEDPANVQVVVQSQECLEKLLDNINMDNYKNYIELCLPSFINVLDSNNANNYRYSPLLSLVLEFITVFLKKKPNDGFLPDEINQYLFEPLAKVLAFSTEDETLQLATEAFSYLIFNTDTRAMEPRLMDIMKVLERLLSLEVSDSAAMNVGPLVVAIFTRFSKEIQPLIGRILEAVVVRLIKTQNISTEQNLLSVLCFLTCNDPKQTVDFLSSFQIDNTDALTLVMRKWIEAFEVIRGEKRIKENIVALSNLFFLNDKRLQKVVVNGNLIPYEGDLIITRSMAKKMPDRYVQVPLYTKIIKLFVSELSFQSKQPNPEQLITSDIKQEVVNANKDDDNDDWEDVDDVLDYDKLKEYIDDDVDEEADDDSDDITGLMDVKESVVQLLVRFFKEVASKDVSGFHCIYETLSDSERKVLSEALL

B1: Smx1 (eGFP-tagged, E. coli lysate) (protein, UniProt Q04175 1-944)
chain: MVQEQAILSCIEQTMVADAKIIKEAEQQLFEFQKQPGFTSFLLNIVSDDNFALNVRLSSAIYLKNKIHRSWDTKREDGIKADEKLSIKERLIETLVKNCENNHIRPILTETINGILVGQEDWDLAPIIKNLLSSGDASYIYPGLLLLFQLCKAHRWDMVGSRDYIDSVIEELFPIVEGIASNIGSQTDYRSNEILYLILKSFKYACLNNLPQYFSQPERIMSWVQLHLYLCSKPLPVEVMELDPADRSLDKRVKVNKWGFGNLNRFLQRYNKITKAITKEFIDYIFNTIVPIILREFFKDIEAWGNNSLWLSDSSLYFLISFLEKCVTIDQLYPLIEPHLQIIFENVIFPCLCANEQSIELLEDDQEEYTRRYFDINREGSTPDAASADFIFLIGSKRPEKLNNILPFINDIFTRFDANSSDINMAFKEEGALRTLSNLFSFIDEPSVLENIFGHFIVPLLSQDKYMFLVARSLETIALYSEEFKDMNILSQLFELTYTNFLNSNVLPVQIEAADAIKCLIVSNPQIHPAVSAHVPGMMEKLLKLSKIFEIDILSEVMEALVERFSDELSPFAKDLASNLVEQFLRIAQALVENPSETYSASDQEQEIQASGLLQTMTTMVMSMNKVPLIESLAPVVKFVVLHAQISFITEAVDLLDALTISSHLLYNQIAPPIWELLHDILDSFQTYAMDYFEAYSIFFETIVMTGFPQDQTYVQPLLEILSAKLESEVDYDIEHVMQILMYFALSMRDIPLFSKAIKVSTNDELGLDSKCIVKLGLANLFAKPIETLQIMENEGFTINFFTNWFNEKFYSVFAIKLQVLVILTLLKMPEVPNSVSPLLNNLTNKLVELTLSLPKAIRNRDAVTEGKSLEGDLTPEEEEEYFIECDDDMKETVLDQINVFQEVHTFFKNLQNEDAGKYEKIINYLDESKRDSLQVILEFVSQH
B2: Pse1 (eGFP-tagged, E. coli lysate) (protein, UniProt P32337 1-1089)
chain: MSALPEEVNRTLLQIVQAFASPDNQIRSVAEKALSEEWITENNIEYLLTFLAEQAAFSQDTTVAALSAVLFRKLALKAPPSSKLMIMSKNITHIRKEVLAQIRSSLLKGFLSERADSIRHKLSDAIAECVQDDLPAWPELLQALIESLKSGNPNFRESSFRILTTVPYLITAVDINSILPIFQSGFTDASDNVKIAAVTAFVGYFKQLPKSEWSKLGILLPSLLNSLPRFLDDGKDDALASVFESLIELVELAPKLFKDMFDQIIQFTDMVIKNKDLEPPARTTALELLTVFSENAPQMCKSNQNYGQTLVMVTLIMMTEVSIDDDDAAEWIESDDTDDEEEVTYDHARQALDRVALKLGGEYLAAPLFQYLQQMITSTEWRERFAAMMALSSAAEGCADVLIGEIPKILDMVIPLINDPHPRVQYGCCNVLGQISTDFSPFIQRTAHDRILPALISKLTSECTSRVQTHAAAALVNFSEFASKDILEPYLDSLLTNLLVLLQSNKLYVQEQALTTIAFIAEAAKNKFIKYYDTLMPLLLNVLKVNNKDNSVLKGKCMECATLIGFAVGKEKFHEHSQELISILVALQNSDIDEDDALRSYLEQSWSRICRILGDDFVPLLPIVIPPLLITAKATQDVGLIEEEEAANFQQYPDWDVVQVQGKHIAIHTSVLDDKVSAMELLQSYATLLRGQFAVYVKEVMEEIALPSLDFYLHDGVRAAGATLIPILLSCLLAATGTQNEELVLLWHKASSKLIGGLMSEPMPEITQVYHNSLVNGIKVMGDNCLSEDQLAAFTKGVSANLTDTYERMQDRHGDGDEYNENIDEEEDFTDEDLLDEINKSIAAVLKTTNGHYLKNLENIWPMINTFLLDNEPILVIFALVVIGDLIQYGGEQTASMKNAFIPKVTECLISPDARIRQAASYIIGVCAQYAPSTYADVCIPTLDTLVQIVDFPGSKLEENRSSTENASAAIAKILYAYNSNIPNVDTYTANWFKTLPTITDKEAASFNYQFLSQLIENNSPIVCAQSNISAVVDSVIQALNERSLTEREGQTVISSVKKLLGFLPSSDAMAIFNRYPADIMEKVHKWFA
B3: Yrb4 (eGFP-tagged, E. coli lysate) (protein, UniProt P40069 1-1113)
chain: MDQQFLSQLEQTLHAITSGVGLKEATKTLQTQFYTQPTTLPALIHILQNGSDDSLKQLAGVEARKLVSKHWNAIDESTRASIKTSLLQTAFSEPKENVRHSNARVIASIGTEELDGNKWPDLVPNLIQTASGEDVQTRQTAIFILFSLLEDFTSSLSGHIDDFLALFSQTINDPSSLEIRSLSAQALNHVSALIEEQETINPVQAQKFAASIPSVVNVLDAVIKADDTMNAKLIFNCLNDFLLLDSQLTGNFIVDLIKLSLQIAVNSEIDEDVRVFALQFIISSLSYRKSKVSQSKLGPEITVAALKVACEEIDVDDELNNEDETGENEENTPSSSAIRLLAFASSELPPSQVASVIVEHIPAMLQSANVFERRAILLAISVAVTGSPDYILSQFDKIIPATINGLKDTEPIVKLAALKCIHQLTTDLQDEVAKFHEEYLPLIIDIIDSAKNIVIYNYATVALDGLLEFIAYDAIAKYLDPLMNKLFYMLESNESSKLRCAVVSAIGSAAFAAGSAFIPYFKTSVHYLEKFIQNCSQIEGMSEDDIELRANTFENISTMARAVRSDAFAEFAEPLVNSAYEAIKTDSARLRESGYAFIANLAKVYGENFAPFLKTILPEIFKTLELDEYQFNFDGDAEDLAAFADSANEEELQNKFTVNTGISYEKEVASAALSELALGTKEHFLPYVEQSLKVLNEQVDESYGLRETALNTIWNVVKSVLLASKVEPESYPKGIPASSYVNADVLAVIQAARETSMGNLSDEFETSMVITVMEDFANMIKQFGAIIIMDNGDSSMLEALCMQVLSVLKGTHTCQTIDIEEDVPRDEELDASETEATLQDVALEVLVSLSQALAGDFAKVFDNFRPVVFGLFQSKSKNKRSSAVGAASELALGMKEQNPFVHEMLEALVIRLTSDKSLEVRGNAAYGVGLLCEYASMDISAVYEPVLKALYELLSAADQKALAAEDDEATREIIDRAYANASGCVARMALKNSALVPLEQTVPALLAHLPLNTGFEEYNPIFELIMKLYQENSPVITNETPRIIEIFSAVFTKENDRIKLEKESTLGREENMERLKQFQTEEMKHKVIELLKYLNTTYNGIVAQNPVLAAVIA

No constants are given. Whether binding was seen depends on the method and setting. In cells and extracts the contact can be indirect. Where a sequence is shown, tags or fusion partners need not be part of it.

The target in the first test is T1, H14-ZZ-NEDD8–tagged Ubc9 (yeast (S. cerevisiae)). As to the kind of experiment: pull-down; H14-ZZ-NEDD8-Ubc9 added to E. coli lysates each containing 3 µM of a different eGFP-tagged yeast NTR; anti-ZZ/ED affibody matrix, elution by tag cleavage; SDS-PAGE/Coomassie; only the target purified.
In the case of “importin α–β complex (yeast; E. coli lysate) (from UniProt Q02821 1-542; Q06142 1-861)”, the binding entry is on record as “no binding (tested: 3 µM)”.

As for “Kap114 (eGFP-tagged, E. coli lysate) (from UniProt P53067 1-1004)”, the binding result was “no binding (tested: 3 µM)”.

As for “importin β (yeast; eGFP-tagged, E. coli lysate) (from UniProt Q06142 1-861)”, the binding entry was “no binding (tested: 3 µM)”.

Another test shares this target. Described as above. This is another data set of the same source.
On to B1, for which the binding entry is recorded as “no binding (tested: 3 µM)”.

For the molecule B2, the binding result is listed as “no binding (tested: 3 µM)”.

Regarding B3, the binding entry is recorded as “no binding (tested: 3 µM)”.

For the origin of these results see article PMC6548132, “Engineered SUMO/protease system identifies Pdr6 as a bidirectional nuclear transport receptor” (The Journal of Cell Biology, 2019).
